Binding data for two molecules are collected here from patent US20180009892A1.

By UniProt entry, the sequences of proteins in these tests, tags left out. Where a name states a change or a piece, a line headed by the entry shows the natural chain unless it says otherwise.
UniProt Q01973: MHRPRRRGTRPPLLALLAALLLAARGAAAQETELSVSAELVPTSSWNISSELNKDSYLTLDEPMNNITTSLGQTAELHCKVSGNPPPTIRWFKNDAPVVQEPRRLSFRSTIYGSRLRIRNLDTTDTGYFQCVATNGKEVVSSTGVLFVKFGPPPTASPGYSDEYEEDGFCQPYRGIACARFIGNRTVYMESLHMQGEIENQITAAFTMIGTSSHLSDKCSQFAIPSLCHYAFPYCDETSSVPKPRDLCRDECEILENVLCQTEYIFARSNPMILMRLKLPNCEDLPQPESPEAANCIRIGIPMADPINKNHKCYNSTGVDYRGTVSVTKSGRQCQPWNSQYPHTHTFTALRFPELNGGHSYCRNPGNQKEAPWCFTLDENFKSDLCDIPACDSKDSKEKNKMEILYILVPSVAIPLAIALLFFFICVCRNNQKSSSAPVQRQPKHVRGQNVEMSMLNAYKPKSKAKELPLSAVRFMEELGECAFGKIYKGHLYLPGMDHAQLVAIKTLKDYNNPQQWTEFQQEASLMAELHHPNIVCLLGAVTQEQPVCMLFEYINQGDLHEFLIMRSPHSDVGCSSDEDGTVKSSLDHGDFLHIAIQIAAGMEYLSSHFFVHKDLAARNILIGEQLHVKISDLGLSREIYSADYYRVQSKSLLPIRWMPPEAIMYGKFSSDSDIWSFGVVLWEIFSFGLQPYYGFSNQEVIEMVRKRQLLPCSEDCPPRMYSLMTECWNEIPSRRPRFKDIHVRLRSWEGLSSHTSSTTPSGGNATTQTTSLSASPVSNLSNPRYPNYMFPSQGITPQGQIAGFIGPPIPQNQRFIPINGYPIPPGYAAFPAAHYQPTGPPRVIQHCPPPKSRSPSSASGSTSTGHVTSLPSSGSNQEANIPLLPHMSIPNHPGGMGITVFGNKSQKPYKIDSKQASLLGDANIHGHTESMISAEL

For assay [1], the target named is human ROR1 on the cell surface (human) (UniProt Q01973). Briefly: cell ELISA, phage. (In an ELISA, binding on a coated surface is turned into a signal by an enzyme label.)
In assay [2] the target is human ROR1 extracellular domain (ECD) protein (human) (UniProt Q01973). Briefly: protein ELISA, phage.
In assay [3] the target is human ROR1 on the cell surface (human) (UniProt Q01973). Briefly: flow cytometry, CLL cells of patient 13, isotype control MFI subtracted. Background: Flow cytometry measures light scatter and fluorescence of single cells or particles in a stream.

Results are given in words; binding and its absence hold for the method and conditions named. Some binding calls cover weakened binding; strength is not graded here.

B1: P601-128 (scFv, V domains shown)
VH: EVQLVQSGAEVKKPGESLKISCKGSGYSFSRYWIGWVRQMPGKGLEWMGIIYPRDSDTRYSPSFQGQVTISADKSISTAYLQWSSLKASDTAMYYCATPVVTAGAFDIWGQGTMVTVSS
VL: DIQMTQSPSSVSASVGDRVTITCRASQGISSWLAWYQQKPGKAPKLLIYAASSLQSGVPSRFSGSGSGTDFTLTISSLQPEDFATYYCQQANSFPLTFGGGTKVEIK
For the molecule B1, the binding entry in assay [1], in assay [2] and in assay [3] was “binds” throughout.

B2: Antibody 601-14 (antibody, V domains shown)
VH: QVQLVQSGAEVKKPGESLKISCKDSGYSFTNYWLGWVRQMPGKGLEWMGIIYPGDSDTRYSPSFRGQVTISADKSISTAYLQWSSLKASDTAMYYCARLNLATHTAFDIWGQGTTVTVSS
VL: QSVLTQPASVSGSPGQSITISCTGTSSDVGGYNYVSWYQQHPGKAPKLMIYDVSNRPSGVSNRFSGSKSGNTASLTISGLQAEDEADYYCSSYTSSSTLWVFGGGTKLTVLG
Turning to B2, the binding entry in assay [3] is “binds”.
